Measurements reported in US20100261682A1, “Method and Means for the Treatment of Cachexia” (Bioneris AB, priority 2007, published 2010).

System: MAC16 tumour-bearing mice
Assay: Body weight, food and water intake in MAC16 tumour-bearing mice treated with lipid soluble alpha-trinositol (Example 5)
Assay type: in vivo, NMRI mice
Conditions: 6 mg/kg and 8 mg/kg
Text: Materials. Lipid soluble alpha trinositol (1-D-tri-O-hexanoyl-myo-inositol 1,2,6-triphosphate) was formed by further esterification of 1-D-Myo-inositol 1,2,6-triphosphate.
Animals. Pure strain male NMRI mice (average body weight 25 g) were transplanted with fragments of the MAC16 tumour subcutaneously into the flank by means of a trochar, selected from donor animals with established weight loss (Bibby M C et al., Characterization of transplantable adenocarcinoma in the mouse colon producing cachexia in the recipient animals. J Natl Cancer Inst 78 (1987) 539-546). Transplanted animals were given a rat and mouse breeding diet (Special Diet Services, Witham, UK) and water at lib. Weight loss was evident 10 to 12 days after tumour implantation. Just prior to the development of weight loss […] were randomized into three groups of six animals each.
Administration of alpha-trinositol. A first experiment was started when the animals had lost about 5% of body weight. Aliquots of lipid soluble alpha-trinositol stock solution corresponding to doses of 6 mg/kg body weight and 8 mg/kg body weight for a 25 g animal were administered subcutaneously three times per day at 8.00, 12.00 and 16.00 hrs. […] Body weight (FIG. 26), tumour volume, and food (FIG. 27) and water (FIG. 28) intake were determined daily (for 5 days) after the last injection. […]

CCCCCC(=O)O[C@@H]1[C@@H](OC(=O)CCCCC)[C@@H](OP(=O)(O)O)[C@@H](OP(=O)(O)O)[C@H](OP(=O)(O)O)[C@H]1OC(=O)CCCCC [lipid soluble alpha trinositol, 1-D-tri-O-hexanoyl-myo-inositol 1,2,6-triphosphate]
food intake (FIG. 27): not affected
water intake (FIG. 28): not affected
